Values from PubChem BioAssay AID1259405 (NCATS, 2018).

Purpose: 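Knock-downs that lift recombinant protein yield in hamster ovary cells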 (primary screen)
System: Chinese hamster CHO-K1 ovary cells with stable secreted eGFP expression
Knock-down reagent: single siRNA against mouse genes, 0.8 pmol siRNA per well (2 µl of 400 nM stock)
Timing: 3 days
Detection: 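Per-well intracellular GFP measured by laser scanning cytometry, plus viability from ATP luminescence, each relative to plate median of non-targeting control wells, in %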
Scale: GFP, % of control: higher = more GFP per well, higher productivity; viability (ATP), % of control: higher = more viable cells (more ATP)
Hit rule: 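a knock-down is called active if GFP reaches 120% or more of non-targeting control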
Shown is an unselected part of about 50,000 deposited reagents. About 4,000 of them (8%) were called active. 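Mouse siRNA library applied to hamster cells; one well for each siRNA.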 Reagents against one gene are numbered here. Reagent sequences are not shown.

no.	gene knocked down	reagent	GFP, % of control	viability (ATP), % of control	activity call
1	Adora2a (adenosine A2a receptor)	1	46.3	49.1	inactive
2	Adora2a (adenosine A2a receptor)	2	77.2	76.6	inactive
3	Adora2a (adenosine A2a receptor)	3	63.2	58	inactive
4	Pwp2 (PWP2 periodic tryptophan protein homolog (yeast))	1	40.3	52.7	inactive
5	Pwp2 (PWP2 periodic tryptophan protein homolog (yeast))	2	13.3	34.4	inactive
6	Pwp2 (PWP2 periodic tryptophan protein homolog (yeast))	3	66.4	72.9	inactive
7	Txk (TXK tyrosine kinase)	1	88	76.9	inactive
8	Txk (TXK tyrosine kinase)	2	93.4	82.6	inactive
9	Txk (TXK tyrosine kinase)	3	64.6	65.7	inactive
10	Hipk2 (homeodomain interacting protein kinase 2)	1	107	108	inactive
11	Hipk2 (homeodomain interacting protein kinase 2)	2	73.8	62.3	inactive
12	Hipk2 (homeodomain interacting protein kinase 2)	3	71.3	65.6	inactive
13	Zfand1 (zinc finger, AN1-type domain 1)	1	110	86.1	inactive
14	Zfand1 (zinc finger, AN1-type domain 1)	2	59.2	53.4	inactive
15	Zfand1 (zinc finger, AN1-type domain 1)	3	75.1	66.3	inactive
16	Rab20 (RAB20, member RAS oncogene family)	1	138	140	active
17	Rab20 (RAB20, member RAS oncogene family)	2	147	112	active
18	Rab20 (RAB20, member RAS oncogene family)	3	75	77.1	inactive
19	Arl14ep (ADP-ribosylation factor-like 14 effector protein)	1	99.5	97.8	inactive
20	Arl14ep (ADP-ribosylation factor-like 14 effector protein)	2	83.7	80.3	inactive
21	Arl14ep (ADP-ribosylation factor-like 14 effector protein)	3	92.2	101	inactive
22	Or8b12c (olfactory receptor family 8 subfamily B member 12C)	1	68.2	62.1	inactive
23	Or8b12c (olfactory receptor family 8 subfamily B member 12C)	2	91.9	50.8	inactive
24	Or8b12c (olfactory receptor family 8 subfamily B member 12C)	3	121	73.2	active
25	Vmn1r32 (vomeronasal 1 receptor 32)	1	58.3	55.6	inactive
26	Vmn1r32 (vomeronasal 1 receptor 32)	2	64	55.8	inactive
27	Vmn1r32 (vomeronasal 1 receptor 32)	3	104	116	inactive
28	4930583K01Rik (RIKEN cDNA 4930583K01 gene)	1	70.9	29.1	inactive
29	4930583K01Rik (RIKEN cDNA 4930583K01 gene)	2	69.3	62.8	inactive
30	4930583K01Rik (RIKEN cDNA 4930583K01 gene)	3	93.2	83.6	inactive
31	Zfp786 (zinc finger protein 786)	1	190	117	active
32	Zfp786 (zinc finger protein 786)	2	39.6	64.5	inactive
33	Zfp786 (zinc finger protein 786)	3	117	101	inactive
34	Rnase2a	1	59.8	43.9	inactive
35	Rnase2a	2	59.9	77.3	inactive
36	Rnase2a	3	100	104	inactive
37	Casz1 (castor zinc finger 1)	1	51	50.3	inactive
38	Casz1 (castor zinc finger 1)	2	88.9	97.3	inactive
39	Casz1 (castor zinc finger 1)	3	89.3	75.1	inactive

Continued (7 carried over from the part before).
no.	gene knocked down	reagent	GFP, % of control	viability (ATP), % of control	activity call
33	Zfp786 (zinc finger protein 786)	3	117	101	inactive
34	Rnase2a	1	59.8	43.9	inactive
35	Rnase2a	2	59.9	77.3	inactive
36	Rnase2a	3	100	104	inactive
37	Casz1 (castor zinc finger 1)	1	51	50.3	inactive
38	Casz1 (castor zinc finger 1)	2	88.9	97.3	inactive
39	Casz1 (castor zinc finger 1)	3	89.3	75.1	inactive
40	Pla2g2f (phospholipase A2, group IIF)	1	75.9	68.6	inactive
41	Pla2g2f (phospholipase A2, group IIF)	2	67.7	58.6	inactive
42	Pla2g2f (phospholipase A2, group IIF)	3	116	63.6	inactive
43	Vps72 (vacuolar protein sorting 72)	1	36	63.7	inactive
44	Vps72 (vacuolar protein sorting 72)	2	66.9	80.5	inactive
45	Vps72 (vacuolar protein sorting 72)	3	67.7	85.5	inactive
46	Tmod1 (tropomodulin 1)	1	51.5	65	inactive
47	Tmod1 (tropomodulin 1)	2	69	64	inactive
48	Tmod1 (tropomodulin 1)	3	75.2	74.8	inactive
49	Ssr2 (signal sequence receptor, beta)	1	52.8	49.4	inactive
50	Ssr2 (signal sequence receptor, beta)	2	59.5	64.1	inactive
51	Ssr2 (signal sequence receptor, beta)	3	36.8	63.9	inactive
52	1700052K11Rik (RIKEN cDNA 1700052K11 gene)	1	91.7	63.2	inactive
53	1700052K11Rik (RIKEN cDNA 1700052K11 gene)	2	140	57	active
54	1700052K11Rik (RIKEN cDNA 1700052K11 gene)	3	88	95.9	inactive
55	Adam32 (a disintegrin and metallopeptidase domain 32)	1	56.1	79	inactive
56	Adam32 (a disintegrin and metallopeptidase domain 32)	2	59.6	74.8	inactive
57	Adam32 (a disintegrin and metallopeptidase domain 32)	3	77.9	78.9	inactive
58	Cd2ap (CD2-associated protein)	1	63.2	70.7	inactive
59	Cd2ap (CD2-associated protein)	2	69.5	70	inactive
60	Foxo6 (forkhead box O6)	1	91.9	90.6	inactive
61	Foxo6 (forkhead box O6)	2	79.5	67.8	inactive
62	Foxo6 (forkhead box O6)	3	68	102	inactive
63	C130073F10Rik (RIKEN cDNA C130073F10 gene)	1	54.9	60.3	inactive
64	C130073F10Rik (RIKEN cDNA C130073F10 gene)	2	69.7	77.7	inactive
65	C130073F10Rik (RIKEN cDNA C130073F10 gene)	3	142	118	active
66	Cog1 (component of oligomeric golgi complex 1)	1	117	120	inactive
67	Cog1 (component of oligomeric golgi complex 1)	2	80.4	72.3	inactive
68	Cog1 (component of oligomeric golgi complex 1)	3	88.8	107	inactive
69	Adra2b (adrenergic receptor, alpha 2b)	1	70.7	38	inactive
70	Adra2b (adrenergic receptor, alpha 2b)	2	117	79.6	inactive
71	Adra2b (adrenergic receptor, alpha 2b)	3	106	64.4	inactive
72	Agt (angiotensinogen)	1	72.2	48.2	inactive
73	Agt (angiotensinogen)	2	51.9	56.2	inactive
74	Agt (angiotensinogen)	3	56.9	51.2	inactive
75	Ryk (receptor-like tyrosine kinase)	1	59.2	63.9	inactive
76	Ryk (receptor-like tyrosine kinase)	2	53.3	97.6	inactive
77	Ryk (receptor-like tyrosine kinase)	3	71.6	61.8	inactive
78	Tgfb2 (transforming growth factor, beta 2)	1	94.1	98.9	inactive
79	Tgfb2 (transforming growth factor, beta 2)	2	50.8	59.8	inactive
80	Tgfb2 (transforming growth factor, beta 2)	3	77.8	71.4	inactive
81	Cd320 (CD320 antigen)	1	19.3	44.8	inactive
82	Cd320 (CD320 antigen)	2	32.1	70.3	inactive
83	Cd320 (CD320 antigen)	3	49.9	69	inactive
84	Cd55 (CD55 molecule, decay accelerating factor for complement)	1	101	82.7	inactive
85	Cd55 (CD55 molecule, decay accelerating factor for complement)	2	84.5	82.2	inactive
86	Cd55 (CD55 molecule, decay accelerating factor for complement)	3	88.8	75.9	inactive
87	Hdac8 (histone deacetylase 8)	1	34.9	45	inactive
88	Hdac8 (histone deacetylase 8)	2	98.8	121	inactive
89	Fbxo40 (F-box protein 40)	1	72.9	77.2	inactive
90	Fbxo40 (F-box protein 40)	2	74.5	44.9	inactive
91	Fbxo40 (F-box protein 40)	3	116	60.3	inactive
92	Ppme1 (protein phosphatase methylesterase 1)	1	105	81.4	inactive
93	Ppme1 (protein phosphatase methylesterase 1)	2	117	100	inactive
94	Ppme1 (protein phosphatase methylesterase 1)	3	79	78.8	inactive
95	Dctd (dCMP deaminase)	1	23	17.1	inactive
96	Dctd (dCMP deaminase)	2	76.6	55.9	inactive
97	Dctd (dCMP deaminase)	3	78.4	64.2	inactive
98	Plac1 (placental specific protein 1)	1	83.8	66.8	inactive
99	Plac1 (placental specific protein 1)	2	58.9	84.5	inactive
100	Plac1 (placental specific protein 1)	3	62	72.4	inactive
101	Gp5 (glycoprotein 5 platelet)	1	161	176	active
102	Gp5 (glycoprotein 5 platelet)	2	128	66.5	active
103	Gp5 (glycoprotein 5 platelet)	3	57.9	68.5	inactive
104	Fndc3a (fibronectin type III domain containing 3A)	1	63.6	72.6	inactive
105	Fndc3a (fibronectin type III domain containing 3A)	2	113	88.2	inactive
106	Fndc3a (fibronectin type III domain containing 3A)	3	56.6	109	inactive
107	Decr2 (2-4-dienoyl-Coenzyme A reductase 2, peroxisomal)	1	77.4	93.9	inactive
108	Decr2 (2-4-dienoyl-Coenzyme A reductase 2, peroxisomal)	2	76.7	85.7	inactive
109	Decr2 (2-4-dienoyl-Coenzyme A reductase 2, peroxisomal)	3	83.3	68.3	inactive
